In publication doi:10.1101/795674:
Results are given in words; binding and its absence hold for the method and conditions named. In cells and extracts the contact can be indirect. Some results given as binding are weak or reduced against the parent protein; the word gives no strength. For some assays here: Tags and fused reporters may be left off the sequences shown.

Sequences of proteins named here, by UniProt entry; tags and fusion partners are left off. A change or cut given only in a name is not applied to a line headed by its entry. A line that says so, or that is headed by a name, gives the form on record, which may keep a tag or linker. Residues count along the entry.
UniProt O14974: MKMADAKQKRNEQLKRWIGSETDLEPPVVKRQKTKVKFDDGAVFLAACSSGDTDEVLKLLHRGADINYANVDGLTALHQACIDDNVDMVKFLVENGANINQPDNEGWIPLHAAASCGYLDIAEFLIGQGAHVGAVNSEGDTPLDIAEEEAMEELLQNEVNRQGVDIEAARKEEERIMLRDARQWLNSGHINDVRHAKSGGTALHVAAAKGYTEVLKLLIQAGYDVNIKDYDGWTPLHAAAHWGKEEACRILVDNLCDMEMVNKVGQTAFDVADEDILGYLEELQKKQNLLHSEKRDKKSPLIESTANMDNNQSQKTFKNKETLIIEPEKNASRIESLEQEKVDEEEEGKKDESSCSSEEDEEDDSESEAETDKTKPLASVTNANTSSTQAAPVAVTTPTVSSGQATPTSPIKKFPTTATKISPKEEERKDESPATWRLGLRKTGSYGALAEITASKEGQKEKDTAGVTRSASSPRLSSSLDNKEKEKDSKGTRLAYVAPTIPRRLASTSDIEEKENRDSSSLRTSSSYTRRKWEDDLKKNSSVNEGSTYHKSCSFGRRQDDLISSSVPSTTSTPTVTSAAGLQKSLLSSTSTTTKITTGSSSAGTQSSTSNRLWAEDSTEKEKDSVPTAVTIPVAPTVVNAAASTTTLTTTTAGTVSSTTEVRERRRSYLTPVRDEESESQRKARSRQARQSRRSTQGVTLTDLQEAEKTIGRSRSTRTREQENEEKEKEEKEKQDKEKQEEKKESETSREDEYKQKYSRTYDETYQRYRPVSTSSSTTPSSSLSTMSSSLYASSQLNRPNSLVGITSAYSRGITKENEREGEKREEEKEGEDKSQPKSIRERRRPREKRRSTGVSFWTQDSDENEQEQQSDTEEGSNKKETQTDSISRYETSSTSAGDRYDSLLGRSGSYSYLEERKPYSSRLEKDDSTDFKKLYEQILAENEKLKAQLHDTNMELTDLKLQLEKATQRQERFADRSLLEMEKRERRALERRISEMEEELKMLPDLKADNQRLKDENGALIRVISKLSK
GST-MYPT1-F2 (297-600): residues 297-600 of O14974
GST-MYPT1-F3 (586-901): residues 586-901 of O14974
HA-MYPT1-4A (O14974, form named): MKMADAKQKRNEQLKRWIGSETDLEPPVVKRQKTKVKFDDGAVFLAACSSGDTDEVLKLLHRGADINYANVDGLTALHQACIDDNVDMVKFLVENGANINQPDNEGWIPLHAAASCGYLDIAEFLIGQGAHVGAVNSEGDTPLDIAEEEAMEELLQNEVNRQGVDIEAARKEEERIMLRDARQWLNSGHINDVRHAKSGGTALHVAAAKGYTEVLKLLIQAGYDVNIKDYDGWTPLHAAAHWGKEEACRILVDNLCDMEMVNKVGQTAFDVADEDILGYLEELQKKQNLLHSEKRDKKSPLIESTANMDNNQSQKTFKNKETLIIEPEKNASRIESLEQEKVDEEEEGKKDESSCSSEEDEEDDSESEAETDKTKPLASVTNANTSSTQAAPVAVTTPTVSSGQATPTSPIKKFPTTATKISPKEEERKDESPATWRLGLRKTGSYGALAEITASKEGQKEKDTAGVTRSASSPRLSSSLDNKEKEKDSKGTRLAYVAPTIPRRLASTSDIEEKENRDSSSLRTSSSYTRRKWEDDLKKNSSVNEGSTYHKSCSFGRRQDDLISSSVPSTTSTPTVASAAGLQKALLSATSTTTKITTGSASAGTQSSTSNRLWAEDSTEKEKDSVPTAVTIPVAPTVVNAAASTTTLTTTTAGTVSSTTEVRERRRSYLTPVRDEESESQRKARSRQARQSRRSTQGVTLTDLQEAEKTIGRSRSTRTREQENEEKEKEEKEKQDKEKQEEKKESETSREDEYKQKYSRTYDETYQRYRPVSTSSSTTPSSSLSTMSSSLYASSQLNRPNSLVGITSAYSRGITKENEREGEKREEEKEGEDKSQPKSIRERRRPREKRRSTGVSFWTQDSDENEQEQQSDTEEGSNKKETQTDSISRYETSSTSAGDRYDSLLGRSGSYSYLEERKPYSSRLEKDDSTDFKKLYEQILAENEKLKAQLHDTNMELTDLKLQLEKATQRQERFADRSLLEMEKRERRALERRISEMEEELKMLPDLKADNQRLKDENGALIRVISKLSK

What was measured:
HA-MYPT1-wild type = HA-MYPT1-wild type (UniProt O14974); assay: co-IP
HA-MYPT1-4A = HA-MYPT1-4A (UniProt O14974); assay: co-IP
GST-MYPT1-F2 (297-600) = GST-MYPT1-F2 (297-600) (UniProt O14974); assay: pull-down
GST-MYPT1-F3 (586-901) = GST-MYPT1-F3 (586-901) (UniProt O14974); assay: pull-down
GST-MYPT1-FL = GST-MYPT1-FL (UniProt O14974); assay: pull-down

## Flag-PLK1 (from UniProt P53350 1-603) (enzyme)
HA-MYPT1-wild type
  binding: binds
HA-MYPT1-4A
  binding: binds

B1: Myc-OGT (enzyme, UniProt O15294 1-1046)
chain: MASSVGNVADSTEPTKRMLSFQGLAELAHREYQAGDFEAAERHCMQLWRQEPDNTGVLLLLSSIHFQCRRLDRSAHFSTLAIKQNPLLAEAYSNLGNVYKERGQLQEAIEHYRHALRLKPDFIDGYINLAAALVAAGDMEGAVQAYVSALQYNPDLYCVRSDLGNLLKALGRLEEAKACYLKAIETQPNFAVAWSNLGCVFNAQGEIWLAIHHFEKAVTLDPNFLDAYINLGNVLKEARIFDRAVAAYLRALSLSPNHAVVHGNLACVYYEQGLIDLAIDTYRRAIELQPHFPDAYCNLANALKEKGSVAEAEDCYNTALRLCPTHADSLNNLANIKREQGNIEEAVRLYRKALEVFPEFAAAHSNLASVLQQQGKLQEALMHYKEAIRISPTFADAYSNMGNTLKEMQDVQGALQCYTRAIQINPAFADAHSNLASIHKDSGNIPEAIASYRTALKLKPDFPDAYCNLAHCLQIVCDWTDYDERMKKLVSIVADQLEKNRLPSVHPHHSMLYPLSHGFRKAIAERHGNLCLDKINVLHKPPYEHPKDLKLSDGRLRVGYVSSDFGNHPTSHLMQSIPGMHNPDKFEVFCYALSPDDGTNFRVKVMAEANHFIDLSQIPCNGKAADRIHQDGIHILVNMNGYTKGARNELFALRPAPIQAMWLGYPGTSGALFMDYIITDQETSPAEVAEQYSEKLAYMPHTFFIGDHANMFPHLKKKAVIDFKSNGHIYDNRIVLNGIDLKAFLDSLPDVKIVKMKCPDGGDNADSSNTALNMPVIPMNTIAEAVIEMINRGQIQITINGFSISNGLATTQINNKAATGEEVPRTIIVTTRSQYGLPEDAIVYCNFNQLYKIDPSTLQMWANILKRVPNSVLWLLRFPAVGEPNIQQYAQNMGLPQNRIIFSPVAPKEEHVRRGQLADVCLDTPLCNGHTTGMDVLWAGTPMVTMPGETLASRVAASQLTCLGCLELIAKNRQEYEDIAVKLGTDLEYLKKVRGKVWKQRISSPLFNTKQYTMELERLYLQMWEHYAAGNKPDHMIKPVEVTESA
GST-MYPT1-F2 (297-600)
  binding: binds
GST-MYPT1-F3 (586-901)
  binding: binds
GST-MYPT1-FL
  binding: binds
